The data set concerns Akt. Kind of data set: Western blot of Akt phosphorylation (T308, S473) in CHO GLUT4 cells. Format: cell-based, Chinese Hamster. The conditions noted are these: calculated from Akt p-S473 % basal, FIG. 6B; for ratio r′ (Akt activity of agonist insulin vs compound) / ratio r″ (Akt activity of compound vs agonist insulin and basal): insulin as Aktagonist. On the procedure:
L6 myotubes (FIG. 5) and CHO GLUT4 cells (FIG. 6) in 12-well plates were used for western blotting. Cells were serum-starved overnight before experiment. Immunoblotting was performed as previously described (Nevzorova et al. 2006, […] et al. 2011, Nevzorova et al. 2002). Primary antibodies (Akt, phospho-Akt T308, phospho-Akt S473, AS 160, GLUT4, phospho-mTOR […], phospho-mTOR […], raptor, and rictor diluted 1:1000) were all from Cell Signaling Technology, Inc and were detected using a secondary antibody (horseradish peroxidase-linked anti-rabbit IgG, from Cell Signaling Technology, Inc) diluted 1:2000 and measured using enhanced chemiluminescence (ECL, Amersham Biosciences).

For `Br.CS(=O)(=O)Nc1c(O)ccc2c1CCCC2C1=NCCN1` (stereo not drawn) [A61603, N-[5-(4,5-dihydro-1H-imidazol-2yl)-2-hydroxy-5,6,7,8-tetrahydronaphthalen-1-yl] methanesulfonamide hydrobromide], the “ratio r (Akt activity of compound vs reference)” value is listed as 0.35; the “ratio r′ (Akt activity of agonist insulin vs compound)” value (“ratio r′” below) was 0.2; the “ratio r″ (Akt activity of compound vs agonist insulin and basal)” value (“ratio r″” for short) is listed as 0.5.

Turning to `NC[C@H](O)c1ccc(O)c(O)c1` [noradrenaline], the “ratio r (Akt activity of compound vs reference)” value is recorded as 0.3; the “ratio r′” value is reported as 0.2; the “ratio r″” value is 0.4.

As to `Cc1cc(C(C)(C)C)c(O)c(C)c1CC1=NCCN1` [oxymetazoline], the “ratio r (Akt activity of compound vs reference)” value is listed as 0.35; the “ratio r′” value is 0.2; the “ratio r″” value was 0.5.

For the molecule insulin, the “ratio r (Akt activity of compound vs reference)” value was 0.7; the “ratio r′” value is given as 0; the “ratio r″” value is given as 1.

These data come from patent US10288602B2, “Screening method, a kit, a method of treatment and a compound for use in a method of treatement” (ATROGI AB, priority 2013, dated 2019).
